Results reported in patent publication US9708371B2, “Treatments for gastrointestinal disorders” (Ironwood Pharmaceuticals, Inc., priority 2011, dated 2017).
At least one compound was matched to its structure with a doubt left. Numbered stars: 1 amine (or outer) side, 2 acyl side, 3 side chain; on linkers, the order of the positions; unused ones are H or OH. Bridge positions count the residues as written; N and C are the ends. Peptide text beside a SMILES is read from it. X1 = O=C(CS[*:2])C(=O)[*:1]

Chains of the proteins cited; added tags and fusions are not shown. Residues count along the entry.
UniProt P25092, 24-1073: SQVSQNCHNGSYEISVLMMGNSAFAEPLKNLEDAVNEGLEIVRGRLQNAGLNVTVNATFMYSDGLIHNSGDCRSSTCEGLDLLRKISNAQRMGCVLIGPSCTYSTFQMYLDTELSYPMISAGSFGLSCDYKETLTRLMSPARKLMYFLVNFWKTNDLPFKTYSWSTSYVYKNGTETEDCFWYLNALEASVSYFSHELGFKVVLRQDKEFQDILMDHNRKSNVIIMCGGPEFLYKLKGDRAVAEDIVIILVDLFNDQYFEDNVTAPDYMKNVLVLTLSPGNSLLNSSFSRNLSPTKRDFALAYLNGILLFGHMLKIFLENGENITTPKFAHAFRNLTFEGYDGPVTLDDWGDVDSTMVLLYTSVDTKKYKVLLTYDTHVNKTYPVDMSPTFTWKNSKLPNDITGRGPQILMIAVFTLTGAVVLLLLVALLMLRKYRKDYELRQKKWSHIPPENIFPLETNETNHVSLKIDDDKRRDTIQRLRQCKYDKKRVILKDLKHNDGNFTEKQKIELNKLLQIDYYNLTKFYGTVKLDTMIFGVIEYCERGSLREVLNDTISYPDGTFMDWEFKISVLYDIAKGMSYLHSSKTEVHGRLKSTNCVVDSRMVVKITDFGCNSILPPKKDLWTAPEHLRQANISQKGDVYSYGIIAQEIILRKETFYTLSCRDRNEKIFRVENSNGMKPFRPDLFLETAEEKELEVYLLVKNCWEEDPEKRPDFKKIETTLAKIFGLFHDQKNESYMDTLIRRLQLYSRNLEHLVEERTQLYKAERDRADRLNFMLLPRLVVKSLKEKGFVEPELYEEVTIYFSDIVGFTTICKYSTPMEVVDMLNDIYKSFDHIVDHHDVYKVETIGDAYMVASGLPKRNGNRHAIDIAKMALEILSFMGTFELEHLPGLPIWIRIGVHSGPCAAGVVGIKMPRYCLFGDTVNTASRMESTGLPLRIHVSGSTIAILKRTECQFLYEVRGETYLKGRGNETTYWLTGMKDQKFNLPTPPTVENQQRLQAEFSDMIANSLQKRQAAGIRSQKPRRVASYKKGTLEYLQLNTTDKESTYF

Tests used:
[1] = biological target: T1, guanylate cyclase-C (GC-C) (Homo sapiens, UniProt P25092); test: Competitive radioligand ([125I]-pSTa) binding assay on T84 cells; conditions: competition with 170 pM [125I]-pSTa, cell-surface GC-C on T84 cells, 37° C., 60 min; read-out: inhibition constant (Ki), relative binding affinity
T1 construct: cell-surface GC-C receptors on human colonic epithelial (T84) cells; host or cells: T84 human colon carcinoma cells

[2] = biological target: T1, guanylate cyclase-C (GC-C); test: cGMP accumulation in T84 cells (GC-C agonist activity); type: cell-based; conditions: read-out: EC50, increase in intracellular cGMP, 1 mM IBMX, 30 min at 37° C., LC/MS/MS

C[C@@H]1NC(=O)[C@@H]2CCCN2C(=O)[C@H](CC(N)=O)NC(=O)[C@@H]2CSSCC(=O)C(=O)N[C@H]3CSSC[C@H](NC1=O)C(=O)N[C@@H]([C@@H](C)O)C(=O)NCC(=O)N[C@H](C(=O)N[C@@H](Cc1ccc(O)cc1)C(=O)O)CSSC[C@H](NC(=O)[C@H](Cc1ccc(O)cc1)NC(=O)[C@H](CCC(=O)O)NC3=O)C(=O)N2 [Cys^1-α-Ketone] (CEYCCNPACTGCY-OH; disulfide 1-9, 4-12; linker N-5 via X1) showed a Ki [1] of 5.2 ± 0.9 nM and an EC50 [2] of 352 ± 55 nM.
